This note sets out measurements from patent US20240240256A1, “MOLECULAR ANALYSIS OF EXTRACELLULAR VESICLES (EVs) FOR THE PREDICTION AND MONITORING OF DRUG RESISTANCE IN CANCER” (The General Hospital Corporation, priority 2023, published 2024).

This test concerns MCF7. The test is described as follows: MTT growth inhibition assay, paclitaxel drug sensitivity. The conditions noted are these: Homo sapiens, MCF7 breast cancer cells, 72 h treatment, read-out: paclitaxel inhibitor concentration 50 (IC50). Type of test: cell-based. The protocol:
The human breast cancer cell lines, including HCC1954, BT474, MCF7, MDA-MB-231, HCC1937 cells, and normal breast cell, Hs371T, were purchased from American Type Culture Collection (ATCC) and cultured at 37° C. in 5% CO2. HCC1954, BT474, and HCC1937 cells were grown in RPMI-1640 (Hyclone), and MCF7, MDA-MB-231, and Hs371T cells were cultured in DMEM (Cyclone). All complete media contained 10% fetal bovine serum (FBS, ThermoFisher Scientific), 100 U/mL penicillin, and 100 μg/mL streptomycin (Millipore Sigma).
Drug sensitivity was determined by the 3-(4, 5-dimethylthiazol-2-yl)-2, 5-diphenyl tetrazolium bromide (MTT) colorimetric assay. First, cells were counted with a hemocytometer, seeded in a 96-well plate, and cultured for 24 h. After that, cells were treated with paclitaxel for 72 h: paclitaxel (1.00E-06-10 µM). Subsequently, MTT dye (Sigma-Aldrich; Merck KGaA) at a final concentration of 0.5 mg/ml was added for 3 hours. This was followed by replacing the medium and dissolving the formazan crystals with DMSO. The optical density (OD; absorbance at 540 nm) was measured using a plate reader (Tecan). Data (mean±SD of at least three independent experiments performed in triplets) are presented as the relative proliferation as a function of time after seeding. […]
For orientation: Tetrazolium assays rely on reduction of a dye to a coloured formazan, in cell work by metabolically active cells.

Structures are written as SMILES.

With `CC(=O)O[C@H]1C(=O)[C@@]2(C)[C@H]([C@H](OC(=O)c3ccccc3)[C@]3(O)C[C@H](OC(=O)[C@H](O)[C@@H](NC(=O)c4ccccc4)c4ccccc4)C(C)=C1C3(C)C)[C@]1(OC(C)=O)CO[C@@H]1C[C@@H]2O` [paclitaxel, Paclitaxel], the IC50 turned out to be 200 nM.
